These are yes or no findings as the source states them, for the method shown. Binding seen in cells or lysates may run through a third protein. Some entries that bind do so weakly or less than the wild type.
Biological target: KCNE1 (MinK), modulatory subunit of KCNQ1 (human (endogenous in iPSC-aCMs)) (UniProt P15382)
Assay: co-IP; anti-KCNE1 (Alomone APC-163) IP from precleared RIPA lysates (500 ug) of WT and TTN-T32756I human iPSC-aCMs, Protein A/G agarose beads, 4°C; immunoblot for FHL2 and MinK

binding: binds
B1: Four-and-a-Half Lim domains 2 (FHL2) (protein, UniProt Q14192 1-279)
chain: MTERFDCHHCNESLFGKKYILREESPYCVVCFETLFANTCEECGKPIGCDCKDLSYKDRHWHEACFHCSQCRNSLVDKPFAAKEDQLLCTDCYSNEYSSKCQECKKTIMPGTRKMEYKGSSWHETCFICHRCQQPIGTKSFIPKDNQNFCVPCYEKQHAMQCVQCKKPITTGGVTYREQPWHKECFVCTACRKQLSGQRFTARDDFAYCLNCFCDLYAKKCAGCTNPISGLGGTKYISFEERQWHNDCFNCKKCSLSLVGRGFLTERDDILCPDCGKDI
